Data from patent EP1030659B1 (Warner-Lambert Company LLC, priority 1997, dated 1999).

The chains behind the UniProt entries cited, without tags or fusion partners.
UniProt P54833, whole entry: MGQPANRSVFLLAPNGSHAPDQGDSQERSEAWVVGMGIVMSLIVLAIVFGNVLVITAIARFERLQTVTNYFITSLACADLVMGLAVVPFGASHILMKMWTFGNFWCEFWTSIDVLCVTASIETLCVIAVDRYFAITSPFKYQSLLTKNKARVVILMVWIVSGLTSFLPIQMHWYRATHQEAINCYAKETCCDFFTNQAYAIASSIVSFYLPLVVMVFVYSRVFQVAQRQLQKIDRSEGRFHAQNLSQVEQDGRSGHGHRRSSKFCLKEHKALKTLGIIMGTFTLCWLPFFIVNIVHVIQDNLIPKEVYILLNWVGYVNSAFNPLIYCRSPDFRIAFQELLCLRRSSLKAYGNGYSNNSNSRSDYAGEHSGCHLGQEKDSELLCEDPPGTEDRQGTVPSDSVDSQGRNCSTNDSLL

Target: T1, β2-receptors (Canis lupus familiaris, UniProt P54833)
T1 construct: The lungs of mongrel dogs were separated from cartilaginous airways and major blood vessels; from tissue; host or cells: mongrel dog lung membranes
Assay: Beta-2 binding, 125iodocyanopindolol (ICYP), canine lung membranes
Set-up: species or system mongrel dogs
Details: check for β1 binding with a β1-selective antagonist

## CC(C)NCC(O)COc1ccc(CC(N)=O)cc1 (stereo not shown) [Atenolol, atenolol]
  displacement of ICYP from pulmonary membranes: largely ineffective in displacing ICYP
